Results: PMC7376022, “ARHGAP10, which encodes Rho GTPase-activating protein 10, is a novel gene for schizophrenia risk” (Translational Psychiatry, 2020)
Results are given in words; binding and its absence hold for the method and conditions named. In cells and extracts the contact can be indirect. Some results given as binding are weak or reduced against the parent protein; the word gives no strength. Sequences can lack the tags named with a protein.

Chains of the proteins cited; added tags and fusions are not shown. Lines headed by an entry give the natural chain unless they say otherwise; changes in a name come on top.
UniProt P61586: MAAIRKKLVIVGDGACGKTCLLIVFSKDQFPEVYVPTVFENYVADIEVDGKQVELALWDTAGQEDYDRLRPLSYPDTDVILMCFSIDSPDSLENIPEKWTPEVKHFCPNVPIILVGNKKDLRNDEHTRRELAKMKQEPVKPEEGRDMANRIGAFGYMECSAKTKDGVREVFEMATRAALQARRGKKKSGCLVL

Molecular target: GST-RhoA (p.Q63L) (UniProt P61586)
Test: pull-down; GST binding assay; GST-RhoA proteins as bait, GFP-tagged ARHGAP10 as prey; input and bound proteins on immunoblots, densitometry with Odyssey Clx; three independent experiments

binding: binds
B1: GFP-tagged human ARHGAP10 full-length wild-type (protein, UniProt A1A4S6 1-786)
chain: MGLQPLEFSDCYLDSPWFRERIRAHEAELERTNKFIKELIKDGKNLIAATKSLSVAQRKFAHSLRDFKFEFIGDAVTDDERCIDASLREFSNFLKNLEEQREIMALSVTETLIKPLEKFRKEQLGAVKEEKKKFDKETEKNYSLIDKHLNLSAKKKDSHLQEADIQVEQNRQHFYELSLEYVCKLQEIQERKKFEFVEPMLSFFQGMFTFYHQGHELAKDFNHYKMELQINIQNTRNRFEGTRSEVEELMNKIRQNPKDHKRASQFTAEGYLYVQEKRPAPFGSSWVKHYCMYRKAAKKFNMIPFEHRSGGKLGDGEVFFLKECTKRHTDSIDRRFCFDIEAADRPGVSLTMQAFSEEERKQWLEALGGKEALSHSFNTAIIPRPEGNAQLDKMGFTIIRKCISAVETRGINDQGLYRVVGVSSKVQRLLSMLMDVKTCNEVDLENSADWEVKTITSALKQYLRSLPEPLMTYELHGDFIVPAKSGSPESRVNAIHFLVHKLPEKNKEMLDILVKHLTNVSNHSKQNLMTVANLGVVFGPTLMRPQEETVAALMDLKFQNIVVEILIENHEKIFRTPPDTTFPEPTCLSASPPNAPPRQSKRQGQRTKRPVAVYNLCLELEDGDNPYPSKEDTPTSSLDSLSSPSPVTTAVPGPPGPDKNHLLADGGSFGDWASTIPGQTRSSMVQWLNPQSPTTTSSNSAVTPLSPGSSPFPFSPPATVADKPPESIRSRKARAVYPCEAEHSSELSFEIGAIFEDVQTSREPGWLEGTLNGKRGLIPQNYVKLL
